Measurements taken from publication PMC6992768, “Loss-of-function mutations in UDP-Glucose 6-Dehydrogenase cause recessive developmental epileptic encephalopathy” (Nature Communications, 2020).
No constants are given. Whether binding was seen depends on the method and setting.

Molecular target: UGDH A82T (human) (UniProt O60701)
Test: SEC; analytical gel filtration of each apoprotein alone; 1x PBS with 1 mM DTT, 0.5 mL/min, Superdex gel filtration column, elution followed by A280; peaks compared with known hexamer, dimer and monomer elution times; both purified

binding: no binding
B1: UGDH A82T (enzyme, UniProt O60701 1-494)
chain: MFEIKKICCIGAGYVGGPTCSVIAHMCPEIRVTVVDVNESRINAWNSPTLPIYEPGLKEVVESCRGKNLFFSTNIDDAIKETDLVFISVNTPTKTYGMGKGRAADLKYIEACARRIVQNSNGYKIVTEKSTVPVRAAESIRRIFDANTKPNLNLQVLSNPEFLAEGTAIKDLKNPDRVLIGGDETPEGQRAVQALCAVYEHWVPREKILTTNTWSSELSKLAANAFLAQRISSINSISALCEATGADVEEVATAIGMDQRIGNKFLKASVGFGGSCFQKDVLNLVYLCEALNLPEVARYWQQVIDMNDYQRRRFASRIIDSLFNTVTDKKIAILGFAFKKDTGDTRESSSIYISKYLMDEGAHLHIYDPKVPREQIVVDLSHPGVSEDDQVSRLVTISKDPYEACDGAHAVVICTEWDMFKELDYERIHKKMLKPAFIFDGRRVLDGLHNELQTIGFQIETIGKKVSSKRIPYAPSGEIPKFSLQDPPNKKPKV
